Results from PubChem BioAssay AID1439 (NMMLSC, 2008).
Where “and” joins values, the source holds several entries; their conditions need not be identical. Identical values can stand only once. The whole screen tested about 220,000 compounds, of which about 770 (0.35%) were called active. The shares of active, inactive and inconclusive entries below differ from those in the screen. Cut-off read from the data, not from the text of the source: active = binding response below about 49% or above about 150%; inconclusive = no clear call, values can overlap the other calls; inactive = in between.

Amino acid sequences for entries named in this document (tags omitted).
UniProt P09471, whole entry, looked up: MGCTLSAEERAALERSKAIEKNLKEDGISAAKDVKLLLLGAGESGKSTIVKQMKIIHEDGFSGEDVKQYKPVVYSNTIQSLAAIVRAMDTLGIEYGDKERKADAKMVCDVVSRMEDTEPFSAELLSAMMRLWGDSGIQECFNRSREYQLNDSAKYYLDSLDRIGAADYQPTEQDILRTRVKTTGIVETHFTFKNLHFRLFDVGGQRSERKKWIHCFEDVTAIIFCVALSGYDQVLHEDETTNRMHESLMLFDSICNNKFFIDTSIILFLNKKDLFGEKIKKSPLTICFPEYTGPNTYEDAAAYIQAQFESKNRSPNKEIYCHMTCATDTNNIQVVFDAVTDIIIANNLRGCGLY

target: Guanine nucleotide-binding protein G(o) subunit alpha (Homo sapiens) (UniProt P09471); assay: RGS7-Galphao binding modulators, primary screen, biochemical, multiplexed bead flow cytometry (AID 1439); conditions: at 10 µM, actives lie on both sides;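 note: fluorescent Galphao held in activated GDP-AlF4 state binding bead-coupled RGS7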

SMILES | binding response (% of control)
Cc1nn2cc(-c3cccc(Cl)c3)cnc2c1Cl | inconclusive: 103%
CC(C)=NNC(=O)c1c(O)c2ccccc2[nH]c1=O | inconclusive: 531%
CC(=C/c1ccccc1)/C=N/N1CCN(Cc2ccc(C)cc2)CC1 | inconclusive: 85.4%
Cc1nc2ccc(NC(=O)N(C)c3ccccc3)cc2s1 | inactive: 102%
CN(c1ccccc1)S(=O)(=O)c1cccc(NC(=O)c2ccncc2)c1 | inconclusive: 96.6%
COc1cccc(/C=C/C(=O)OCC(=O)NCc2ccc(Cl)cc2)c1 | inconclusive: 108%
Cc1cc(=O)[nH]c(N/N=C/c2ccc(OC(=O)c3ccco3)cc2)n1 | inactive: 97.8%
Cc1cc(C)cc(OCC(=O)OCC(=O)Nc2c(C)n(C)n(-c3ccccc3)c2=O)c1 | active: 153% [activator]
N/C(CSc1ccc(Cl)cc1)=N\NC(=O)c1ccncc1 | inconclusive: 94.4%
CCCCN(C)C(=S)Nc1ccc2nc3n(c(=O)c2c1)CCCCC3 | inconclusive: 89.7%
CC(=O)Nc1ccc(Oc2cncc(Cl)c2)nc1 | inconclusive: 80.4%
COC(=O)CC1(c2ccc(OC)cc2)C(=O)c2ccccc2C1=O | inconclusive: 77%
Cc1[nH]c(=O)[nH]c(=O)c1CSCC(=O)OCC(=O)Nc1ccccn1 | inconclusive: 68.8%
CCc1nnc(NC(=O)CCc2c[nH]c3ccccc23)s1 | inconclusive: 96.7%
COc1ccc(S(=O)(=O)N2CCCCCC2)cc1NC(=O)Cc1ccccc1 | inactive: 106%
Cc1ccc(S(=O)(=O)Nc2cccnc2Oc2ccc(Cl)cc2)cc1 | inconclusive: 514%
CC(C)(C)c1ccc(OCc2ccc(C(=O)NN)o2)cc1 | inconclusive: 102%
Cc1ccc(S(=O)(=O)NCc2ccc(C(=O)NCc3cccnc3)cc2)cc1 | inactive: 103%
Cc1ccc(-n2c(C)n[nH]c2=S)cc1C | inactive: 103%
CCOC(=O)c1sc(=S)n(-c2ccc(OC)cc2)c1C | inconclusive: 2.88%
CN1C(=O)N(c2nnc(C(C)(C)C)s2)C(=O)C1c1ccccc1 (stereo not drawn) | inconclusive: 353%
Cc1ccc(C(=O)/C=C/c2ccccc2[N+](=O)[O-])cc1 | inconclusive: 91.8%

SMILES | binding response (% of control)
CCC1=C(OC(=O)N(CC)CC)N2C(=O)OC(=NCCOC)[C@]2(Cc2ccccc2)[C@H]2C1=CC[C@H]1C(=O)N(CC(=O)OC)C(=O)[C@H]12 | inconclusive: 95.2%
N#C/C(=C(/O)C(Cl)(Cl)Cl)c1nc2ccccc2[nH]1 | inconclusive: 53.9%
O=C(N/N=C/c1cn(CC(=O)N2CCOCC2)c2ccccc12)c1cccnc1 | inconclusive: 114%
C=CCN1c2ccccc2[C@]23C[C@@H](C(=O)OC)N(C(=O)NCCC)C2=NC(C(=O)OC)=C(C(=O)OC)[C@H]13 | inconclusive: 89.4%
Cc1cccc(-c2cnn(-c3cccc([N+](=O)[O-])c3)c2N)c1 | inconclusive: 102%
COC(=O)c1sc2nc(CN3CCOCC3)nc(N3CCOCC3)c2c1C | inactive: 106%
Cc1csc(NC(=O)CCCC(=O)O)c1-c1nc2ccccc2s1 | inconclusive: 98.8%
CCCCCCn1c(SCC(=O)c2c(N)n(C)c(=O)n(C)c2=O)nc2ccccc21 | inactive: 101%
O=C(NC1=NCCS1)c1ccc(Cl)c(S(=O)(=O)N2CCOCC2)c1 | inactive: 102%
O=C(CSc1n[nH]c(=O)n1Cc1ccco1)c1ccc(F)cc1 | inconclusive: 116%
Cc1ccccc1N1C(=O)CC(Nc2ccc3c(c2)OCO3)C1=O (stereo not drawn) | inconclusive: 113%
COc1cc(/C=C/C(=O)OCC(=O)N2CCc3ccccc3C2)ccc1O | inactive: 93%
CC(=O)c1ccc(NC(=O)Cn2nc(C)c([N+](=O)[O-])c2C)cc1 | inconclusive: 109%
Cc1ccc(C)c(N2CCN(C(=O)C34CC5CC(C3)CC(n3nnc(C)n3)(C5)C4)CC2)c1 | inconclusive: 52.8%
CC(C)CC(NC(N)=O)C(=O)Nc1cccc([N+](=O)[O-])c1 (stereo not drawn) | inconclusive: 102%
Cc1cc(-c2nnc(CCC(=O)N3CCN(Cc4cccc(F)c4)CC3)o2)c(C)o1 | inactive: 103%
N#CC1=C(N)Oc2n[nH]c(-c3cccnc3)c2C1c1ccc([N+](=O)[O-])o1 (stereo not drawn) | inactive: 97.8%
CC(=C\C(=O)O)/C(=C/c1ccco1)C(=O)O | inconclusive: 248%
CCOC(=O)C1=C(CS(=O)(=O)c2ccccc2)NC(=O)NC1c1ccc(O)c(OC)c1 (stereo not drawn) | inconclusive: 102%
COC(=O)CCCC1=CC2=CC(=O)C(C)(OC(=O)c3cccs3)C(=O)C2=CN1CC1CC1 (stereo not drawn) | inconclusive: 90%
COc1ccc(C(=O)N2CCN(Cc3nc(CC4CC4)no3)CC2)cc1 | inactive: 94.1%
CCC(C)Sc1nc(O)cc(=O)[nH]1 (stereo not drawn) | active: 248% [activator]

SMILES | binding response (% of control)
O=C(CSc1nc2ncccc2[nH]1)NCCc1ccccc1 | inactive: 103%
Cc1ccc(/C(N)=N/OC(=O)CCC2CCCC2)cc1 | inconclusive: 105%
O=C(Nc1ccc(N2CCOCC2)c([N+](=O)[O-])c1)c1ccco1 | inconclusive: 101%
CCOC(=O)c1c(C)[nH]c(C(=O)N2CCCC(C(=O)c3ccccc3OC)C2)c1C (stereo not drawn) | inconclusive: 65.3%
CC(C)(C)OC(=O)CNC(=O)c1[nH]cnc1C(=O)Nc1ccc(CNC(=O)OC(C)(C)C)cc1 | inconclusive: 92.7%
Cc1ccc(NS(=O)(=O)c2ccc(OCC(N)=O)cc2)cc1 | inactive: 97.7%
COc1c(/C=N/NC(=O)c2ccncc2)c(CCN(C)C(C)=O)cc2c1OCO2 | inconclusive: -105%
CC1CN(c2ccc(S(=O)(=O)N3CCCC3)cn2)CC(C)O1 (stereo not drawn) | inconclusive: 189%
O=C(CSc1n[nH]c(=O)n1C1CC1)N1N=C(c2ccc(Cl)cc2)CC1c1ccco1 (stereo not drawn) | inconclusive: 105%
CCn1nc(C)c(Br)c1Nc1ccc(Br)cc1 | inconclusive: 111%
CC(=O)Nc1ccc(-c2csc(NC(=O)Nc3ccccc3)n2)cc1 | inconclusive: 80%
N#CCSc1nnc2sc3ccccc3n12 | inactive: 98.3%
CCOC(=O)N1CCc2c(sc(NC(=O)CN(CC)CC)c2C#N)C1 | inconclusive: 101%
CN(C(=O)Nc1ccccc1)n1cnc2ccccc2c1=O | inconclusive: 87.4%
N#CCCN(Cc1ccccc1)C(=O)Nc1ccc2c(c1)CCO2 | inconclusive: 118%
CC/C(=N\NC(=O)C1CC1)c1cccc(Cl)c1 | inconclusive: 97%
COc1ccc(NC(=S)NCCc2c(C)[nH]c3ccc(OC)cc23)cc1 | inactive: 100%
Cc1ccc(SCCC(=O)OCn2nnc3ccccc3c2=O)cc1 | inactive: 103%
Cc1ccc(Cl)cc1NC(=O)COC(=O)C12CC3CC(CC(C3)C1)C2 | inactive: 100% and inactive: 93.6%
CC(C)c1nc2c([nH]1)c(=O)n(C)c(=O)n2C | inconclusive: 39.1%
Cc1cc(C(=O)C(C)Sc2cccc[n+]2[O-])c(C)n1-c1ccc(Cl)cc1 (stereo not drawn) | inconclusive: 107%
Cc1ccc(NS(=O)(=O)c2ccc3c(c2)NC(=O)CC(=O)N3)cc1C | inactive: 111%

SMILES | binding response (% of control)
C=CCC1(C#N)C(SC)=NC2=C(C(=O)CC(C)(C)C2)C1c1ccc(Br)cc1 (stereo not drawn) | inactive: 105%
O=c1cc(COc2ccc(Cl)c(Cl)c2)nc2sccn12 | inconclusive: 192%
COc1ccc(/C(C)=N/NC(=O)CNC(=O)Cc2ccccc2)c(OC)c1 | inconclusive: -18.9%
Cc1c(Cl)ccc2c(C(=O)NC(C)c3ccncc3)cc(-c3ccncc3)nc12 (stereo not drawn) | inconclusive: 111%
O=c1[nH]c2cc3c(cc2cc1CN(Cc1ccco1)C(=S)NCCCN1CCOCC1)OCCO3 | inactive: 100%
COc1ccc(NC(=S)N(CCC(C)C)C(C)c2ccncc2)cc1 (stereo not drawn) | inconclusive: 86.3%
CC(C)(C)c1nc(C(C)(C)C)c(Br)c(=O)[nH]1 | inactive: 99.2%
c1ccc(-c2cc(-c3nnco3)c3ccccc3n2)nc1 | inconclusive: 115%
O=C(NCc1ccc2c(c1)CCO2)Nc1cccc(C(F)(F)F)c1 | inconclusive: 86.3%
CCN(CC(=O)Nc1cccc(S(N)(=O)=O)c1)Cc1nc2ccccc2c(=O)[nH]1 | inconclusive: 106%
CCOC(=O)Nc1ccc(OCc2nnc3c4ccccc4c(C)nn23)cc1 | inconclusive: 105%
CC(C)(C)OC(=O)N1CCC[C@H]1c1nnc(SCc2cccc(Cl)c2)o1 | inconclusive: 94.2%
COc1ccc(S(=O)(=O)N2CCCCC2)cc1NC(=O)c1cc(C)on1 | inconclusive: 103%
CCC(C(=O)OCC(=O)Nc1ccc(OC)cc1OC)c1ccccc1 (stereo not drawn) | inconclusive: 110%
COc1cccc(/C=C2\SC(=O)NC2=O)c1OCc1ccc(C(=O)O)cc1 | inconclusive: 108%
O=C(c1ccc(CN2CCOCC2)cc1)N1CCC(Cc2ccccc2)CC1 | inactive: 135%
COc1cc(OC)c2ccc(=O)oc2c1C(CC(=O)N1CCOCC1)c1ccc(N(C)C)cc1 (stereo not drawn) | inconclusive: 96.6%
O=C(NCc1nc2ccccc2[nH]1)C1=C[C@@H](c2ccc3c(c2)OCO3)C[C@@H](OCc2ccc(CO)cc2)O1 | inconclusive: 92.9%
CCc1ccccc1NC(=S)NCC1CCN(c2ccc(OC)cc2)C1 (stereo not drawn) | inconclusive: 98.7%
CCC(C)c1ccc(S(=O)(=O)N2CCN(C(C)CC(=O)O)CC2)cc1 (stereo not drawn) | inconclusive: 88.2%
Brc1ccc2nc(-c3c[nH]c4ccccc34)cn2c1 | inconclusive: 101%
COCCCn1c(SCC(=O)Nc2ccc(C(C)=O)cc2)nc2ccccc2c1=O | inactive: 98.8%
